Assay results: paper PMC10163288
This is one part of the list.

B1: il10ra_site1_normal_mot_HHH_b1_00814_af2_000000078_0001_43_57_H_._HHH_b2_03174_af2_0001_0000100007_0000001_0_af2pred_0001 (protein)
chain: SSSSSDEVEERVEELLEEAEKTSDPEEALRLLREALELALKNNDPELERLVLEVIRKLISSSSSS
B2: il10ra_site1_sap_22_mot_HHH_b1_06912_af2_000000235_0001_1_15_H_._HHH_b1_07786_af2_0001_0000200007_0000001_0_0001 (protein)
chain: SSSDDTERVQELIERAAELLREGDEERAQELIEEAEELAEELNNWAARFAVEALRRSLEALSSSS
B3: il10ra_site1_sap_20_mot_HHH_b1_07527_000000076_0001_1_15_H_._HHH_b1_03840_af2_0001_0000300020_0000001_0_0001_af2pred_0001 (protein)
chain: SSSSDEEEKRAEELAEEIKELLERGNLHEAIRLVRELIELALKLNDEELLKLALRLSREIISSSS
B4: il10ra_site1_normal_mot_HHH_b1_06816_000000239_0001_1_19_H_._HHH_b2_02034_0001_0000500019_0000002_0_af2pred_0001 (protein)
chain: SSSSSSDLEEQAEELLEEVEKIDNPQERTEVARKAIKLAVRAGNPELARRISEIATRLSSSSSSS
B5: il10ra_site1_normal_mot_HHH_b1_00999_000000080_0001_41_55_H_._HHH_b1_02251_0001_0000200023_0000002_0 (protein)
chain: SSSSDEEEERIEKLLEEVEELRKEGDEEEAFRLLQEAVRLAYELQDAELLREIWELVREIGSSSS
B6: il10ra_site1_sap_16_mot_HHH_b2_03220_af2_000000223_0001_23_40_H_._HHH_b2_07861_0001_0000300037_0000002_0_0001 (protein)
chain: SSSSSVEELLEELRELRHKVDEELEEYIERTLRFARALLKDGNPEAAETLLRLAIDSVKGSSSSS
B7: il10ra_site1_normal_mot_a6c796b944619e241e020fd597ddb6da_0001_af2_000000092_0001_15_31_H_._HHH_b2_01641_0001_0000200011_0000001_1_af2pred_0001 (protein)
chain: SSSSDEEARDILKALLYAAKLSENERAARNAVLRALELAKEEGDEELLEEIERLLEELENSSSSS
B8: il10ra_site1_sap_10_mot_HHH_b2_00277_af2_000000172_0001_1_17_H_._HHH_b2_00266_0001_0000100001_0000002_0_0001_af2pred_0001 (protein)
chain: SSSSSDAEEEVKELLEEAEQVEDPHEFAELAAKALRLAAEANDDELFREILKVIIEFRRSSSSSS
B9: il10ra_site1_normal_mot_HHH_b1_00999_000000080_0001_41_55_H_._HHH_b2_01341_0001_0000100004_0000001_0 (protein)
chain: SSSSDVEERVRELLEEAEEAAERGNPEEAARLLQEAVRLAYERQDQELLREVWEVVRRIGNSSSS
B10: il10ra_site1_normal_mot_HHH_b1_06789_af2_000000041_0001_1_20_H_._HHH_b2_03753_0001_0000100002_0000002_0 (protein)
chain: SSSSSARYLVEQALKAAELLYKQGDEEEAERAAEIAVLIARQAGDEELLEEVEKFLKELRSSSSS
B11: il10ra_site1_sap_25_mot_HHH_b1_05670_af2_000000039_0001_1_19_H_._HHH_b1_08315_0001_0000600031_0000001_0_0001 (protein)
chain: SSSDQEMRELARAALRQVEQMHELNDPEAIRFMLIALEVLYERLGDPELKEIYEEAEELLGSSSS
B12: il10ra_site1_normal_mot_HHH_b2_01310_000000089_0001_41_55_H_._HHH_b2_00697_0001_0000400036_0000001_0_af2pred_dldesign_0_af2pred (protein)
chain: SSSSSEAELEALRARVEALLEAGKPEEAVELVRKLAREAFESNDAEKLALAVELAKLIEESSSSS
B13: il10ra_site1_sap_20_mot_HHH_b1_06031_000000025_0001_40_54_H_._HHH_b2_04713_0001_0000300027_0000001_0_0001 (protein)
chain: SSSSDEAKELAEEVIEELEELQKRGNHDEVYELIEEAIKLLHELNDPEAVRLLMEFLRELFSSSS
B14: il10ra_site1_normal_mot_HHH_b1_08622_000000192_0001_23_40_H_._HHH_b1_02232_0001_0000100022_0000002_0 (protein)
chain: SSSSSAIERAVRLLLEAAKELYELGDEERAREVLEILLRYAEQSNDEEAERLIQELLEELSSSSS
B15: il10ra_site1_sap_17_mot_aff62e40800cfbf30c5099bd910ef069_0001_000000130_0001_18_32_H_._4d38eb9c16805ff794392fe48eb80f74_0001_0001_0000200012_0000001_0_0001 (protein)
chain: SSSSDDEALELSLEAFRLALHGNPEEAEEVAEEALRLARELGDERLAEVIEHMLESIRSASSSSS
B16: il10ra_site1_sap_22_mot_39ab2cb694c8b9c1dc7e65c0d672c93e_0001_000000036_0001_53_65_H_._HHH_b1_08027_0001_0000400020_0000002_0_0001 (protein)
chain: SSSSSEEEELTELLHEIMELYKKGDPRAEELVREAQELAEELGNRAAEFILRILLEALELKSSSS
B17: il10ra_site1_sap_21_mot_HHH_b1_01082_af2_000000031_0001_3_19_H_._HHH_b2_02420_0001_0000100014_0000001_0_0001_af2pred_0001 (protein)
chain: SSSSSSEKRAARLLLESAERISDPRLARAALRLAVEAAREGGDEELLEELEKVLEELEGSSSSSS
B18: il10ra_site1_normal_mot_2c1a291787c6f40772924d4e9068d803_0001_af2_000000187_0001_34_48_H_._ems_3hC_645_0001_0000400018_0000001_0_af2pred_0001 (protein)
chain: SSSEEEVFHLVAEVHLVAVKVGDPEAEEIAKELAKLAAEALIENDEEKLKEVSKLLEEFLEEFSS
B19: il10ra_site1_sap_19_mot_HHH_b1_03333_000000091_0001_1_17_H_._HHH_b1_05023_af2_0001_0000400030_0000001_0_0001_af2pred_0001 (protein)
chain: SSSSDDEEFLRLSLKFIEFAIEEGDEEAARKLIRAARQIAERLGNEEIQERLEELLERLNSSSSS
B20: il10ra_site1_normal_mot_HHH_b1_02809_af2_000000277_0001_40_57_H_._HHH_b2_04321_0001_0000300034_0000002_0_af2pred_0001 (protein)
chain: SSSSDELIQRVAELYLKASELLEEGDDEEVERIIEELKELAKEYGDEKVRLAAEFLEAMLKSSSS
B21: il10ra_site1_sap_23_mot_HHH_b2_03328_af2_000000127_0001_1_19_H_._HHH_b2_01688_0001_0000100004_0000002_0_0001 (protein)
chain: SSSSDELLQRAAELVLEALRALLHGNPEEAEELLEEALELARELGDESMARVIEDMLASTESSSS
B22: il10ra_site1_normal_mot_HHH_b1_02997_000000220_0001_39_52_H_._HHH_b2_00132_0001_0000100012_0000001_0_af2pred_0001 (protein)
chain: SSSSSKESHRIVELIREAIELYAEGNPEEAEEVLREAEELAEEAGNEEALILVEFILERNRSSSS
B23: il10ra_site1_sap_18_mot_HHH_b1_02665_000000293_0001_1_18_H_._HHH_b2_03533_0001_0000400011_0000001_1_0001_af2pred_0001 (protein)
chain: SSSSSSEEEEERVEELLERAEEIPNPKERFKVIREAAELAAELRNPELERLVAEFIKRLLSSSSS
B24: il10ra_site1_normal_mot_HHH_b2_01310_000000089_0001_41_55_H_._HHH_b2_01682_af2_0002_0000800018_0000001_0_af2pred_0001 (protein)
chain: SSSSSSDLEELIEQVEELIERNDEEEAIRVLRELVQLAQKKNDEEAFRAILELAELIKSSSSSSS

Each binder was assayed against il10ra, Q13651 (assay: yeast display titration).

Apparent Kd, inactive:
B1 no binding seen
B2 no binding seen
B3 no binding seen
B4 no binding seen
B5 no binding seen
B6 no binding seen
B7 no binding seen
B8 no binding seen
B9 no binding seen
B10 no binding seen
B11 no binding seen
B12 no binding seen
B13 no binding seen
B14 no binding seen
B15 no binding seen
B16 no binding seen
B17 no binding seen
B18 no binding seen
B19 no binding seen
B20 no binding seen
B21 no binding seen
B22 no binding seen
B23 no binding seen
B24 no binding seen

Reprinted from the listing for reference:
Apparent Kd, inactive:
B16 no binding seen
B17 no binding seen
